Experimental data published in ChEMBL document CHEMBL4138198, “Synthesis of new 1-benzyl tetrahydropyridinylidene ammonium salts and their antimicrobial and anticellular activities” (Eur J Med Chem, 2018).

Tested on: Pseudomonas aeruginosa
Assay: Antimicrobial activity against Pseudomonas aeruginosa ATCC 27853 assessed as zone of inhibition at 50 ug per disc after 24 hrs by disc diffusion assay
Type: functional

Q: Which inhibition zone (IZ) does the source give for GENTAMICIN here?
A: The inhibition zone (IZ) was 18 mm.
